The record followed here is paper PMC9700792.

Sequences of proteins named here, by UniProt entry; tags and fusion partners are left off. Residues count along the entry.
UniProt Q8BNW9: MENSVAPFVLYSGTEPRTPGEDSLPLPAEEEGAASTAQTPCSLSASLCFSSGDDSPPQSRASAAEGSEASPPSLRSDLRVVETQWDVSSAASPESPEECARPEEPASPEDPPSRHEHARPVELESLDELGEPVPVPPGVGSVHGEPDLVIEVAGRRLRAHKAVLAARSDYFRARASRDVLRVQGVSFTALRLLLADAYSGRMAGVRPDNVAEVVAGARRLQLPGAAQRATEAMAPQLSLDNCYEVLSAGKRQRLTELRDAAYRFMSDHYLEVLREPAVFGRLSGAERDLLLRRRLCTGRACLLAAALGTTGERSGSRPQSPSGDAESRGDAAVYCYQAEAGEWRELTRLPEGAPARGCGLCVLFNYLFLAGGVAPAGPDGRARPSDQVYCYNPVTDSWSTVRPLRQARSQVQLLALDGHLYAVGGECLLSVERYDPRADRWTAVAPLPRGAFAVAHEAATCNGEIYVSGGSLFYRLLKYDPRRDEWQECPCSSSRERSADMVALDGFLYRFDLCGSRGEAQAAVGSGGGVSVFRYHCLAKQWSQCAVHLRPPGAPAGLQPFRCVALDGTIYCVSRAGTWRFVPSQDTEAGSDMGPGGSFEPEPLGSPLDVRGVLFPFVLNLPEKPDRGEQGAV
UniProt Q9JLV5: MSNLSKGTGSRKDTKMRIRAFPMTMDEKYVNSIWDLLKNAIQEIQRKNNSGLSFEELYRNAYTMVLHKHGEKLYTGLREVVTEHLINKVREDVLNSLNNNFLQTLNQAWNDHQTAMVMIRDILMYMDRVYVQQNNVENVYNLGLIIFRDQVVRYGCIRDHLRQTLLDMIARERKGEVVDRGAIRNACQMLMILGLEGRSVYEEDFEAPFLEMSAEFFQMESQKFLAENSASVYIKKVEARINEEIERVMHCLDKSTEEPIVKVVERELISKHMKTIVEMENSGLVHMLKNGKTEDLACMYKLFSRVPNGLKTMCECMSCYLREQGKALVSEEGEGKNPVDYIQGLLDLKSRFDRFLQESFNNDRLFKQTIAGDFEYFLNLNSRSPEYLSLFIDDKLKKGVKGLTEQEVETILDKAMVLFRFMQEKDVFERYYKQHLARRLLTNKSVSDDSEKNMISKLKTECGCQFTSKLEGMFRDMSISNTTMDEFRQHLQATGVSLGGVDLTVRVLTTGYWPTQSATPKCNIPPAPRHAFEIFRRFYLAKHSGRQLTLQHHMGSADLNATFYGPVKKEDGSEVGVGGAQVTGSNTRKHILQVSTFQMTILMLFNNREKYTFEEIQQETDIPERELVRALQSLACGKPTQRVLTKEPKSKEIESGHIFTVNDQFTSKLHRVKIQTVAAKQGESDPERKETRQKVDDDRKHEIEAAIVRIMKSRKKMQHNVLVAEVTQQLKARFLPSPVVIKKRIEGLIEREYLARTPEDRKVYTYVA
UniProt P63038, residues 27-573: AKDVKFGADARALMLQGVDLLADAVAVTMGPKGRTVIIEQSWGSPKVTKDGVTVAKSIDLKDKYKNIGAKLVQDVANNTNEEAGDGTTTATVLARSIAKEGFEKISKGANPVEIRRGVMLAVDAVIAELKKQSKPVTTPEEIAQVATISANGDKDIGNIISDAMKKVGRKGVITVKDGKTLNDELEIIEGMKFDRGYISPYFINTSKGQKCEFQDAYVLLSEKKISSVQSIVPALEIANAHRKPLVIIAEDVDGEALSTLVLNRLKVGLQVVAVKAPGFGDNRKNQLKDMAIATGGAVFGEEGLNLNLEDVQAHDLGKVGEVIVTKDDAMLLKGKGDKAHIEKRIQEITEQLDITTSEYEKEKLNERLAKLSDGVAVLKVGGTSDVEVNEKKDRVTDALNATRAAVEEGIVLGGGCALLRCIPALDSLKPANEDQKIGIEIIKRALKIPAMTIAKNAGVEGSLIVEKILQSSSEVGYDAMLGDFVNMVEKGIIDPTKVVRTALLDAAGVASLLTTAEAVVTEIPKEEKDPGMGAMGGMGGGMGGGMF

Results are given in words; binding and its absence hold for the method and conditions named. Binding seen in cells or lysates may run through a third protein. Some entries that bind do so weakly or less than the wild type.

One assay deals with FLAG-His-tagged KBTBD11 (UniProt Q8BNW9). Briefly: co-IP; whole-cell lysates of 3T3-L1 cells infected with GFP or FLAG-His-tagged Kbtbd11 adenovirus, immunoprecipitated with anti-FLAG antibody, blotted with anti-FLAG, anti-HSC70, anti-HSP60 and anti-Cullin3.
Assay [1] has as its target Cullin3 (mouse (endogenous in 3T3-L1)) (UniProt Q9JLV5). Briefly: co-IP; whole-cell lysates of 3T3-L1 cells infected with GFP or FLAG-His-tagged KBTBD11 adenovirus, immunoprecipitated with anti-Cullin3 antibodies.

Take Cullin3 (from UniProt Q9JLV5 1-768): the binding result in the assay with FLAG-His-tagged KBTBD11 is “binds”.

In the case of “FLAG-His-tagged KBTBD11 (from UniProt Q8BNW9 1-633)”, the binding entry in assay [1] is listed as “binds”.

HSP60 (from UniProt P63038 27-573): the binding entry in the assay with FLAG-His-tagged KBTBD11 is given as “binds”; in assay [1] it was “no binding”.
